Laboratory results from PubChem BioAssay AID540276 (National Center for Advancing Translational Sciences (NCATS), 2011).
Values joined by “and” are separate entries in the source; they are usually repeats but may differ in a detail not shown here. Identical values can stand only once. Out of some 300,000 compounds screened, about 5,400 (1.8%) were called active. The inconclusive results got no clear call from the source; some entries with a clear call stand among them for comparison. Calls come from the whole dose curve; tested in HEK293 cells. A potency beside an inconclusive call is a rough fit, not a confirmed value.

experiment: qHTS for inhibitors of binding or entry into cells for Marburg Virus; conditions: Marburg virus pseudotyped entry inhibition, cell reporter; series mostly up to 37.8 µM
Potency is the fitted concentration of half-maximal effect.

| Structure (SMILES) | Potency |
| --- | --- |
| NC(=O)c1ccccc1NC(=O)CN1CCCCCC1 | inactive |
| CN1CCc2c(sc3c2C(=O)NC(c2cccs2)N3)C1 (centres undefined) | inactive |
| CC1CCCN(C(=O)C(C)Sc2nc(-c3ccccc3)cc(C(F)(F)F)n2)C1 (centres undefined) | inconclusive: 16.4 µM [inhibitor, partial curve, poor fit] |
| Cc1cccc(C)c1NC(=O)C(NC=O)c1ccccc1 (centres undefined) | inactive |
| COCCNCCOc1ccc(C(C)(C)c2ccccc2)cc1 | inconclusive: 25.1 µM [inhibitor, single point] |
| O=C(NCC1CCCO1)c1ccc(-c2ccccc2Cl)o1 (centres undefined) | inconclusive: 0.708 µM [activator, partial curve, poor fit] |
| Cc1ccc(NC(=S)NCCO)c(C)c1 | inactive |
| Cc1cnc(NC(=O)CSc2c(Cl)cccc2Cl)s1 | inconclusive: 11.2 µM [inhibitor, partial curve, poor fit] |
| Cc1cc(NC(=O)CSc2nc(-c3ccc(Cl)cc3)cs2)no1 | inconclusive: 8.2 µM [inhibitor, partial curve, poor fit] |
| O=C(c1ccc(Cn2c(=S)[nH]c3ccc(N4CCOCC4)cc3c2=O)cc1)N1CCC(N2CCCCC2)CC1 | inconclusive: 35.5 µM [inhibitor, single point] |
| COc1ccc(CCC(=O)Nc2nccs2)cc1OC | inactive |
| CCN(CC)CC(O)CNc1ccnc2c(Cl)ccc(Cl)c12 (centres undefined) | inconclusive: 11.2 µM [inhibitor, partial curve, poor fit] |
| CC1CCCN(S(=O)(=O)c2ccc(NC(=O)CNC3CCCC3)cc2)C1 (centres undefined) | inconclusive: 35.5 µM [inhibitor, single point] |
| CNC(=S)Nc1ccc(N2CCCC2)c(S(=O)(=O)Nc2ccc(OC)cc2)c1 | inactive |
| CCn1cc(C(=O)Nc2ccc(Cl)cc2Cl)cn1 | inactive |
| O=C1/C(=C/c2cccnc2)Oc2cc(OS(=O)(=O)c3ccc(F)cc3)ccc21 | inconclusive: 29.1 µM [inhibitor, single point] |
| CC(=O)C1C(c2ccc(C)cc2)c2c(n[nH]c2C)CC1(C)O (centres undefined) | inactive |
| N#CC(=C(/N)Sc1ccccc1N)/C(C#N)=C(/N)Sc1ccccc1N | inconclusive: 14.1 µM [inhibitor, partial curve, poor fit] |
| O=C1C(Cl)=C(N2CCN(c3ccccc3[N+](=O)[O-])CC2)C(=O)c2ccccc21 | inconclusive: 1.64 µM [inhibitor, partial curve, poor fit] |
| COc1ccc2nc(NC(=O)CSc3nnc(C)s3)sc2c1 | inconclusive: 18.3 µM [inhibitor, partial curve, poor fit] |
| Cc1cc(NC(=O)c2cccc(S(=O)(=O)Nc3cccc(C(=O)O)c3)c2)no1 | inactive |
| Cc1ccc(-c2nn(-c3ccc(F)cc3)cc2C(=O)NC2CCC(O)CC2)cc1 (centres undefined) | inconclusive: 1.26 µM [inhibitor, single point] |

| Structure (SMILES) | Potency |
| --- | --- |
| C[C@H](NC(=O)c1cc2cc(Cl)ccc2n1C)C(=O)N1CCC(C(=O)O)CC1 | inconclusive: 0.891 µM [inhibitor, full curve, poor fit] |
| COc1ccc(CN2CCN(Cc3c[nH]c4ccccc34)CC2CCO)c(F)c1 (centres undefined) | inconclusive: 0.891 µM [inhibitor, full curve, poor fit] |
| COc1cc([C@@H]2c3cc4c(cc3[C@H](O)C3COC(=O)[C@@H]32)OCO4)cc(OC)c1OC (some centres undefined) | inactive and inconclusive: 28.2 nM [inhibitor, full curve] |
| Cc1ccc2[nH]c(C(=O)NCCN3CCCC3)cc2c1 | inconclusive: 35.5 µM [inhibitor, single point] |
| COc1cc2c(=O)c(S(=O)(=O)c3ccc(C)cc3)cn(Cc3cccc(C)c3)c2cc1OC | inconclusive: 20 µM [inhibitor, single point] |
| COc1cccc(NC(=O)c2cc(-c3cccnc3)nc3c(Cl)cccc23)c1 | inconclusive: 4.11 µM [inhibitor, full curve, poor fit] |
| C=CCNC(=O)C1CCN(S(=O)(=O)c2ccc(Br)cc2)CC1 | inactive |
| COc1ccc(O)c(/C=N/N2CCOCC2)c1 | inactive |
| CCc1ccc(S(=O)(=O)NCCc2csc(-c3ccccc3)n2)s1 | inconclusive: 29.1 µM [inhibitor, single point] |
| OC1CCN(c2c3c(nc4cc(-c5ccc(F)cc5)nn24)CCC3)CC1 | inactive |
| COc1ccc(COC(=O)N/N=C(\C)CC(=O)Nc2c(C)cc(C)cc2C)cc1 | inactive |
| CCCCN(C)CCCNC(=O)Cn1nc(CC)n2c(cc3sc(C)cc32)c1=O | inconclusive: 15.8 µM [inhibitor, single point] |
| Cc1cc2c(cc1C)C(c1cccc(OC(C)C)c1)CC(=O)N2 (centres undefined) | inconclusive: 8.91 µM [inhibitor, partial curve, poor fit] |
| N=c1oc2ccccc2cc1C(=O)NCc1ccccc1 | inactive |
| CCCC(=O)Nc1sc2c(c1C(=O)OCC)CC(C)(C)OC2 | inconclusive: 1.26 µM [inhibitor, single point] |
| O=C(COC(=O)/C=C/c1ccc(Cl)cc1Cl)Nc1ccc2c(c1)OCCO2 | inconclusive: 1.26 µM [activator, partial curve, poor fit] |
| CC(C)c1ccc(NC(=O)C(c2ccc3c(c2)OCO3)N2CCN(C(=O)c3ccco3)CC2)cc1 (centres undefined) | inactive |
| CCn1cc(CN2CCCC(C(=O)c3ccc(-c4ccccc4)c(F)c3)C2)cn1 (centres undefined) | inconclusive: 31.6 µM [inhibitor, single point] |
| COc1ccc(/C=C/C(=O)NCc2cn(C)nc2C)cc1COc1ccc(Cl)cc1Br | inconclusive: 32.6 µM [inhibitor, single point] |
| CCNC(=O)CON=C1c2ccccc2-c2ccccc21 | inconclusive: 0.0891 µM [inhibitor, full curve, poor fit] |
| NS(=O)(=O)c1cccc2c1c([N+](=O)[O-])cc1nc(O)c(O)nc12 | inconclusive: 0.02 µM [inhibitor, full curve, poor fit] |
| O=[N+]([O-])c1nn(-c2ccc3c(c2)OCCO3)n(O)c1=NCc1ccc(F)cc1 | inconclusive: 1.03 µM [activator, full curve, poor fit] |
